# PubChem BioAssay AID504793, Drosophila RNAi Screening Center | 2011
# Purpose: 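Genes required for cells to halt at G2/M after double-strand DNA breaks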 (primary screen)
# Cells: Drosophila S2R+ cells
# Reagent: long dsRNA against Drosophila genes, about 0.25 µg dsRNA per well
# Duration: 4 days of dsRNA, then 4 hours of drug before read-out
# Conditions: doxorubicin 0.5 µM for 4 hours to cause double-strand breaks, in cells also given a low, harmless dose of dsRNA against nbs to sensitise the assay
# Detection: 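Per-well count of mitotic cells stained for phospho-histone H3 after doxorubicin exposure, used as mitotic index; counts are raw and not normalised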
# Scale: mitotic cells: higher = more cells in mitosis, weaker G2 arrest
# Call rule: 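Genes are called active only when high mitotic counts were reproduced with independent dsRNAs and mitosis was checked for delay without damage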
# Meaning of the calls: active = confirmed in follow-up tests; inactive = not confirmed
# The screen tested about 23,000 reagents; shown is an unselected part of those that have a named target and a result. In the full data, 62 (0.27%) were called active. 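Calls come from follow-up tests whose scores are not deposited, so confirmed genes may have low counts here; counts are not normalised per plate.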 Raw values are not corrected between plates. A plus sign joins genes that one reagent is predicted to hit.
The opening 5 entries as a preview:
target,DRSC id,"mitotic cells, replicate 1","mitotic cells, replicate 2",Outcome
CG13196,DRSC06321,5,,inactive
wuc,DRSC06152,7,,inactive
NetB,DRSC20262,6,,inactive
NetB,DRSC26437,8,,inactive
CLS,DRSC15642,13,,inactive

The listing, repeating the preview:
target,DRSC id,"mitotic cells, replicate 1","mitotic cells, replicate 2",Outcome
CG13196,DRSC06321,5,,inactive
wuc,DRSC06152,7,,inactive
NetB,DRSC20262,6,,inactive
NetB,DRSC26437,8,,inactive
CLS,DRSC15642,13,,inactive
CLS,DRSC28289,10,,inactive
CG32376,DRSC22754,10,,inactive
Naxd,DRSC09722,7,,inactive
CG1571,DRSC18068,10,,inactive
lgs,DRSC17152,3,,inactive
l(3)L1231,DRSC16323,6,,inactive
ich,DRSC14448,2,,inactive
ich,DRSC29647,7,,inactive
scb,DRSC05542,6,,inactive
scb,DRSC07678,7,,inactive
List,DRSC06520,5,,inactive
Cyp18a1,DRSC20235,8,,inactive
Cyp18a1,DRSC27063,3,,inactive
gkt,DRSC00821,3,,inactive
Cdk5,DRSC07359,2,,inactive
alphaTub85E,DRSC16899,110,,inactive
alphaTub85E,DRSC23424,84,,inactive
Vps2,DRSC14886,17,,inactive
Vps2,DRSC27194,23,,inactive
sro,DRSC14469,8,12,inactive
sro,DRSC27358,7,,inactive
CG18469,DRSC21838,2,,inactive
CG31016,DRSC21359,14,,inactive
CG31016,DRSC27353,4,,inactive
CAP,DRSC06743,4,,inactive
CAP,DRSC06744,6,,inactive
CAP,DRSC06745,4,,inactive
CAP,DRSC06846,9,,inactive
CG13775,DRSC02279,4,,inactive
CG13775,DRSC29121,5,,inactive
Obp19a,DRSC20487,6,,inactive
Adgf-E,DRSC05973,10,,inactive
Adgf-E,DRSC27287,9,,inactive
uncNacbeta,DRSC00326,1,,inactive
CG10183,DRSC14203,12,,inactive
CG10183,DRSC25343,5,,inactive
CG5157,DRSC10488,10,,inactive
CG5157,DRSC27474,7,,inactive
Roc2,DRSC07313,7,,inactive
Roc2,DRSC27174,10,,inactive
oys,DRSC05203,13,,inactive
oys,DRSC06751,3,,inactive
oys,DRSC26939,7,,inactive
Frq1,DRSC19961,11,,inactive
Frq1,DRSC25439,8,,inactive
CG12910,DRSC06225,3,,inactive
CG5122,DRSC02816,7,,inactive
Ccp84Ae,DRSC12590,6,,inactive
Ccp84Ae,DRSC26385,3,,inactive
Obp57a,DRSC22047,12,,inactive
Obp57a,DRSC25699,3,,inactive
CG42700,DRSC06293,4,,inactive
CG42700,DRSC23109,21,,inactive
CG42700,DRSC27344,6,,inactive
Cpr23B,DRSC23504,3,,inactive
CG12490 + CG30265,DRSC25712,3,,inactive
mamo,DRSC19370,15,,inactive
mamo,DRSC29723,7,,inactive
CG10669,DRSC14261,9,,inactive
dpr14,DRSC17767,6,,inactive
dpr14,DRSC26488,10,,inactive
tth,DRSC19435,9,,inactive
tth,DRSC25120,6,,inactive
bin3,DRSC04919,10,,inactive
RpL9,DRSC03418,5,,inactive
PIG-H + Kmn2,DRSC12653,15,,inactive
CG13473,DRSC10017,5,,inactive
EMC10,DRSC11850,4,,inactive
CG31248,DRSC22722,8,,inactive
CG17683,DRSC21160,2,,inactive
CG17683,DRSC27534,5,,inactive
CG14492,DRSC06463,8,,inactive
CG12024,DRSC08229,2,,inactive
CG12024,DRSC27391,3,,inactive
CheA29a,DRSC21486,9,,inactive
nAChRalpha3,DRSC18800,18,,inactive
nAChRalpha3,DRSC25751,8,,inactive
RpL19,DRSC04649,5,,inactive
RpL19,DRSC28391,3,,inactive
CG17085 (retired record),DRSC02565,1,,inactive
CG17085 (retired record),DRSC02566,4,,inactive
CG17085 (retired record),DRSC30095,5,,inactive
MED4,DRSC11014,5,,inactive
MED4,DRSC25135,25,,active
atk,DRSC11418,4,9,inactive
atk,DRSC11769,4,,inactive
atk,DRSC26412,4,,inactive
Ir94a,DRSC13538,2,,inactive
Ir94a,DRSC28031,8,,inactive
CG12016 + Dpm2,DRSC08224,4,,inactive
CG12016 + Dpm2,DRSC25292,3,,inactive
CG42541,DRSC17973,13,,inactive
CG42541,DRSC18120,7,,inactive
CG42541,DRSC25318,8,,inactive
CG42541,DRSC25441,1,,inactive
nab,DRSC08455,6,,inactive
nab,DRSC08456,4,,inactive
Taf10b,DRSC26605,10,,inactive
CG1902,DRSC06798,8,,inactive
Vtld + CG42529,DRSC10102,3,,inactive
PIP5K59B,DRSC04290,8,,inactive
PIP5K59B,DRSC04403,6,,inactive
aPKC,DRSC05515,6,,inactive
aPKC,DRSC07639,9,,inactive
aPKC,DRSC28133,7,,inactive
aPKC,DRSC29936,19,,inactive
